Measurements reported in US20240116987A1, “POLYPEPTIDE INHIBITORS OF LACTATE DEHYDROGENASE ACTIVITY FOR USE IN CANCER THERAPY” (UNIVERSITÉ CATHOLIQUE DE LOUVAIN, priority 2021, published 2024).

Experiment: Mass photometry (oligomeric state in solution)
Assay type: physicochemical, human
Conditions: for Mw (main oligomeric state, mass photometry): means ± SD, theoretical tetramer 155 kDa, dimer 78 kDa

E62A: LDH-H recombinant alanine variant E62A of SEQ ID NO: 2
Oligomeric state in solution according to MP: behaving mainly as dimers in solution

F72A: LDH-H recombinant alanine variant F72A of SEQ ID NO: 2
Oligomeric state in solution according to MP: behaving mainly as dimers in solution | Mw (main oligomeric state, mass photometry): 70 ± 17 kDa

L71A: LDH-H recombinant alanine variant L71A of SEQ ID NO: 2
Oligomeric state in solution according to MP: behaving as a mixture of tetramers and dimers | Mw (main oligomeric state, mass photometry): 148 ± 12 kDa

LDH-Htr: dimeric model of LDH-H obtained by truncating its N-terminal tetramerization domain [reference compound]
Oligomeric state in solution according to MP: equilibrium between dimers and tetramers in solution | Mw (main oligomeric state, mass photometry): 88 ± 13 kDa
